Results are given in words; binding and its absence hold for the method and conditions named. In cells and extracts the contact can be indirect. Sequences can lack the tags named with a protein.
Molecular target: T1, Tld1-mNeonGreen (Saccharomyces cerevisiae) (UniProt Q05611)
T1 sequence: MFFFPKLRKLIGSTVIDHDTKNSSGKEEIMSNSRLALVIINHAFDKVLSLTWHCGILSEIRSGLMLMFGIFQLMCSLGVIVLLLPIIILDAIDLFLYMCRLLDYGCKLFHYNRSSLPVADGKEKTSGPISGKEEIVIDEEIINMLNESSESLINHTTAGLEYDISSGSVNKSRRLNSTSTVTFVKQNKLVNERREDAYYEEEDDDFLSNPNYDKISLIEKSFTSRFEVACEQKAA
Experiment: co-IP

binding: no binding
B1: Tgl3-3xHA (enzyme, UniProt P40308 1-642)
chain: MKETAQEYKVSAVIPTLLKNWILRVVYATLDHIPPFVWEILHVITDIYFFWVQKLINYVRPHSRVIYYNAIKKLDECDTYQMWCQQASVVDEITGANLWRRNFFSRRYDFNSVIEQYSILENMLREEKYDVVKEKFSTTGPCMLRNFAGIGDKKLFTKSLMGTKLLIEQYLTRILEGLDILNNQTLTPTSFFQRCKLSLGTTALILQGGSLFGLFHLGVIRGLLLQDLMPNIISGSSMGACVASLFGCLSNEQLKQLLTDDNLLNIIKNDVDLLKSCGYGNLEQHLNLGTLIQNLIHHGYSQDVYLFIRFVMKYIVKEKTFEEVYQITGKVFNIVIHPTDKSCPNLLNYVTTPNVLIKSAIECSLGSGVISEDTSLLCKNLENEIEPFLNINKNKQVKFLTPENANNPSITESPYTRLTELFNVNNFIVSLARPYLAPLVVNDLKHEIKTSKYYYYKHYPNMPPINANTVRKTQRSSSQSPIKAGTVEDLEPEPLMSPVPPSSAVNDSAEYIIPELGIPQLNFTEMEPLAFKFKYHLERKLKNIATMEFRHRMEVLDNLGLLCSLIKRLIIDEKTPRSATEIAVVPRMKSLSLTRIIEGQLNNIPYWIKSGERSTWPALALIKTRCAVEFKLDDIIRARRSR
